Experimental data as given in PMC9817759.
Results are given in words; binding and its absence hold for the method and conditions named. For some assays here: In cells and extracts the contact can be indirect. Some binding calls cover weakened binding; strength is not graded here. Values belong to the substance of their own block, whether it stands above or below them.

Sequences of proteins named here, by UniProt entry; tags and fusion partners are left off.
UniProt Q00987: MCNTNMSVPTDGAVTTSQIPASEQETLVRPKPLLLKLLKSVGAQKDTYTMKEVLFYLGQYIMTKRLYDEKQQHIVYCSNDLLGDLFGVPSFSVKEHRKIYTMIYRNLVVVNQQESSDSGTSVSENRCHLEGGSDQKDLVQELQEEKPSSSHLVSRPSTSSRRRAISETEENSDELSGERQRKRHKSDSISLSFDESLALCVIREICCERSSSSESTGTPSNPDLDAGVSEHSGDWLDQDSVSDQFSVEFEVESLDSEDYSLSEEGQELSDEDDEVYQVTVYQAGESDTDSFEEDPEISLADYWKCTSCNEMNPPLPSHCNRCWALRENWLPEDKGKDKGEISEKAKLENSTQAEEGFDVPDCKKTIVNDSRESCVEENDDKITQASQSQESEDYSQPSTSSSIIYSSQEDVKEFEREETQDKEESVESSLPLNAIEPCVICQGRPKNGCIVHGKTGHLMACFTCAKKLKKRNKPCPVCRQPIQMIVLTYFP
UniProt Q15418: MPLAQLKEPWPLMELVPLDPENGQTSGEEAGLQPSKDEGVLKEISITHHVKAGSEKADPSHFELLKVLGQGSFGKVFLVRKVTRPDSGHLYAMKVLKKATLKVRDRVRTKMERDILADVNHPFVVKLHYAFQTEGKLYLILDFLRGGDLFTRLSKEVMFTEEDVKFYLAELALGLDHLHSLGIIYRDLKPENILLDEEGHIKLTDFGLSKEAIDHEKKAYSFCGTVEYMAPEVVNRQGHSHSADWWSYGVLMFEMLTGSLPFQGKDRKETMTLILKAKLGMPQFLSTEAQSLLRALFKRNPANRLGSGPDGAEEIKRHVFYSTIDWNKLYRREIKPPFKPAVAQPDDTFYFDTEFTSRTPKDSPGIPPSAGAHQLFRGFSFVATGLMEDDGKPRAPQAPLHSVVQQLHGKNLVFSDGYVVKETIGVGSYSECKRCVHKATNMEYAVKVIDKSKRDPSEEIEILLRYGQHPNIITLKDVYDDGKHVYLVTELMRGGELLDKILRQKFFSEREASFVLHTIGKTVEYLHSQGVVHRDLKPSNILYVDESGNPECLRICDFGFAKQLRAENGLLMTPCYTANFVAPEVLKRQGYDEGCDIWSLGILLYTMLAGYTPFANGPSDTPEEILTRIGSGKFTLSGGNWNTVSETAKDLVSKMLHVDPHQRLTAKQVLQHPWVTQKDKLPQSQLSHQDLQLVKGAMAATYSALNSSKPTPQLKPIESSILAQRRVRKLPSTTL
UniProt P51812: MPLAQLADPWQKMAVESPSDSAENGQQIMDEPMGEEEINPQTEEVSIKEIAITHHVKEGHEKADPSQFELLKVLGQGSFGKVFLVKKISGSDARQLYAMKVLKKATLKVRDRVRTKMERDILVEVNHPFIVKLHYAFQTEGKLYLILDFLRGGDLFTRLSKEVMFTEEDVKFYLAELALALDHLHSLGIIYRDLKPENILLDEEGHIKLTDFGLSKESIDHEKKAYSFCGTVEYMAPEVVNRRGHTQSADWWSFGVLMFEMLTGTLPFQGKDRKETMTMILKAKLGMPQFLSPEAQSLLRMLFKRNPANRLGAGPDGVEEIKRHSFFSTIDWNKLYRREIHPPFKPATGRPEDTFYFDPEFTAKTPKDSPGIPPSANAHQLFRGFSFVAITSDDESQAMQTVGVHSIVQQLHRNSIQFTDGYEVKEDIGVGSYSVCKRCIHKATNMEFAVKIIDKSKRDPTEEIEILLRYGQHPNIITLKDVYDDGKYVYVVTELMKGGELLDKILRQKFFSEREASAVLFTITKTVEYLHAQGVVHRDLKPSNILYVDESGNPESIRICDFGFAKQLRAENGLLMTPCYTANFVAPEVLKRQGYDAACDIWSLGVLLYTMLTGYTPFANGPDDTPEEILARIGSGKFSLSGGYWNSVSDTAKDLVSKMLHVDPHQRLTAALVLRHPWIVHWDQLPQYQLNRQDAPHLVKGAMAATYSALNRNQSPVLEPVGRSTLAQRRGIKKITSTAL

Tests used:
[1] = biological target: endogenous MDM2 of HEK293 cells (human (endogenous in HEK293)) (UniProt Q00987); experiment: co-IP; HEK293 cells transfected with constitutively active myristylated RSK1 or RSK2; lysate immunoprecipitated with anti-MDM2, blotted with anti-RSK1 and anti-RSK2
[2] = biological target: Recombinant Human GST MDM2/HDM2 (BostonBiochem cat. E3-202) (human) (UniProt Q00987); experiment: co-IP; recombinant RSK1 and MDM2 mixed in vitro; immunoprecipitated with anti-RSK1 or anti-MDM2, blotted with anti-MDM2 and anti-RSK1; with or without BI-D1870 (1 and 5 µM); both purified
[3] = biological target: active recombinant p90RSK1 (RSK active, SignalChem cat. R15-10G) (UniProt Q15418); experiment: as above
[4] = biological target: endogenous p90RSK (RSK1) of TPC1 and other thyroid tumor cell lines (human (endogenous in TPC1)) (UniProt Q15418); experiment: co-IP; endogenous proteins of TPC1 cells; immunoprecipitated with anti-RSK1 or anti-MDM2, control IgG lane; also cells treated for 1 h with BI-D1870 (4, 10 µM)
[5] = biological target: endogenous p90RSK (RSK1) of TPC1 and other thyroid tumor cell lines (human (endogenous in TPC1)) (UniProt Q15418); experiment: co-IP; experiments of TPC1 repeated in other thyroid tumor lines (CAL62, BCPAP, SW1736, 8505C); supplementary Figures S1 and S2
[6] = biological target: endogenous MDM2 of TPC1 and other thyroid tumor cell lines (human (endogenous in TPC1)) (UniProt Q00987); experiment: co-IP; endogenous proteins of TPC1 cells; immunoprecipitated with anti-RSK1 or anti-MDM2, control IgG lane; also cells treated for 1 h with BI-D1870 (4, 10 µM)
[7] = biological target: endogenous MDM2 of TPC1 and other thyroid tumor cell lines (human (endogenous in TPC1)) (UniProt Q00987); experiment: co-IP; experiments of TPC1 repeated in other thyroid tumor lines (CAL62, BCPAP, SW1736, 8505C); supplementary Figures S1 and S2

Substance: constitutively active myristilated RSK2 (p90RSK2 in the pWZL-neo-myr-flag expression vector) (from UniProt P51812 1-740) (enzyme)
binding [1]: binds

Substance: active recombinant p90RSK1 (RSK active, SignalChem cat. R15-10G) (from UniProt Q15418 1-735) (enzyme)
binding [2]: binds

Substance: constitutively active myristilated RSK1 (p90RSK1 in the pRK7-myr expression vector) (from UniProt Q15418 1-735) (enzyme)
binding [1]: binds

Substance: endogenous MDM2 of TPC1 and other thyroid tumor cell lines (from UniProt Q00987 1-491)
binding [4]: binds | binding [5]: binds

Next, values leading:

binding [3]: binds
Substance: Recombinant Human GST MDM2/HDM2 (BostonBiochem cat. E3-202) (from UniProt Q00987 1-491) (enzyme)

binding [6]: binds | binding [7]: binds
Substance: endogenous p90RSK (RSK1) of TPC1 and other thyroid tumor cell lines (from UniProt Q15418 1-735) (enzyme)
